This is an account of results in PubChem BioAssay AID328 (DTP/NCI, 2004).

Each structure is given as a SMILES string. The list is a part of this screen's results and no random one: it gathers tests that were run many times, whatever their T/C, doses with no T/C, and many T/C values between a quarter and a half above the control. Further doses and runs are listed elsewhere. T/C is the treated group as % of the vehicle group. Some doses have a count of surviving animals in place of a T/C: the source files T/C as zero there, which appears to mark a toxic dose or a test without result, not a measured value. Some doses without a T/C left all or most animals alive at the check, yet need not have been tolerated: survival well below the control is almost never listed, so the zero probably covers shortened survival too. Survivors were counted at the toxicity check, usually on the fifth day, unless a day is given; later deaths do not show. Schedules are NCI's codes, taken here to give the interval after Q, in days (D) or hours (H), and the number of doses after X. For survival time, this PubChem deposit counts one and a half times the control or more as active, and values a quarter to a half above the control carry no call in these data; other NCI protocols may use other cut-offs. Some entries hold several experiments; their values stand side by side, smallest first. Some T/C values carry the count of animals alive at the toxicity check (mostly the fifth day); without a count, all were alive then.

The test system of this test is BDF1 mice, P388 leukemia ip, median survival T/C. As to the kind of experiment: NCI In Vivo Anticancer Drug Screen. Data for tumor model P388 Leukemia (intraperitoneal) in B6D2F1 (BDF1) mice. The conditions noted are these: T/C endpoint: median survival time, higher T/C = longer survival. Put shortly: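 Transplantable tumour in mice; compound vs vehicle dosing; survival scored; ratio of treated to control reported.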

The mark [1] stands for this setting: dose: 25.0 mg/kg/injection, schedule: Q01DX009 (ip), vehicle: Klucel (hydroxypropylcellulose) (HPC).
The mark [2] stands for this setting: dose: 50.0 mg/kg/injection, schedule: Q01DX009 (ip), vehicle: Klucel (hydroxypropylcellulose) (HPC).
Setting [3] is: dose: 50.0 mg/kg/injection, schedule: Q04DX003 (ip), vehicle: saline.
Where [4] appears, read: dose: 100.0 mg/kg/injection, schedule: Q01DX009 (ip), vehicle: Klucel (hydroxypropylcellulose) (HPC).
Where [5] appears, read: dose: 100.0 mg/kg/injection, schedule: Q04DX003 (ip), vehicle: Klucel (hydroxypropylcellulose) (HPC).
[6] abbreviates: dose: 200.0 mg/kg/injection, schedule: Q04DX003 (ip), vehicle: Klucel (hydroxypropylcellulose) (HPC).
[7] abbreviates: dose: 400.0 mg/kg/injection, schedule: Q04DX003 (ip), vehicle: Klucel (hydroxypropylcellulose) (HPC).
The mark [8] stands for this setting: dose: 4.5 mg/kg/injection, schedule: Q01DX009 (ip), vehicle: saline.

Regarding `COc1ccc(/C=C/c2ccc3ccccc3[n+]2C)c(OC)c1OC`, the T/C reads like this: (dose: 2.5 mg/kg/injection, schedule: Q01DX009 (ip), vehicle: Klucel (hydroxypropylcellulose) (HPC)) 125 % of control; (dose: 10.0 mg/kg/injection, schedule: Q01DX009 (ip), vehicle: Klucel (hydroxypropylcellulose) (HPC)) 143 % of control; (dose: 20.0 mg/kg/injection, schedule: Q01DX009 (ip), vehicle: Klucel (hydroxypropylcellulose) (HPC)) 136 % of control. Further, the survivor count (dose: 40.0 mg/kg/injection, schedule: Q01DX009 (ip), vehicle: Klucel (hydroxypropylcellulose) (HPC)) is 0 of 6.

For the compound `O=C1OC(=O)C2C3C=CC(C4C=CC43)C12` (stereo not given), the survivor count (dose: 100.0 mg/kg/injection, schedule: Q01DX009 (ip), vehicle: saline) is reported as 6 of 6.

Regarding `C[C@]12CC[C@H](O)C[C@@]1(O)CC[C@@H]1[C@@H]2CC[C@]2(C)[C@@H](c3ccc(=O)oc3)CC[C@]12O`, the survivor count (dose: 50.0 mg/kg/injection, schedule: Q01DX010 (ip), vehicle: carboxymethylcellulose (CMC)) is given as 5 of 6.

`COc1ccc(OC)c(NC(=O)NC(c2ccccc2)c2ccccc2)c1`: the survivor count is on record as 6 of 6 under setting [1] and 6 of 6 under setting [2].

On to `O=[N+]([O-])c1ccc(C(O)Nc2nccs2)o1` (stereo not given), for which the T/C (dose: 25.0 mg/kg/injection, schedule: Q01DX009 (ip), vehicle: saline with Tween-80) is 135 % of control [5 of 6 alive] and the T/C (dose: 50.0 mg/kg/injection, schedule: Q01DX009 (ip), vehicle: saline with Tween-80) was 130 % of control. In addition, the survivor count is, setting by setting: (dose: 100.0 mg/kg/injection, schedule: Q01DX009 (ip), vehicle: saline with Tween-80) 0 of 6; (dose: 100.0 mg/kg/injection, schedule: Q04DX003 (ip), vehicle: saline with Tween-80) 3 of 6; (dose: 200.0 mg/kg/injection, schedule: Q04DX003 (ip), vehicle: saline with Tween-80) 1 of 6.

Regarding `CCOCCOCCOCCCNCCCN1CC1`, the T/C under setting [3] is 147 % of control. Also, the survivor count (dose: 200.0 mg/kg/injection, schedule: Q01DX009 (ip), vehicle: saline) was 4 of 6.

With `CC(=O)O[C@H]1CC[C@H]2[C@@H]3CC[C@H]4C[C@@H]5[C@H](C[C@]4(C)[C@H]3CC[C@]12C)C5(F)F`, the survivor count was 6 of 6 under setting [1]; 6 of 6 (dose: 25.0 mg/kg/injection, schedule: Q04DX003 (ip), vehicle: Klucel (hydroxypropylcellulose) (HPC)); 6 of 6 under setting [2]; 6 of 6 (dose: 50.0 mg/kg/injection, schedule: Q04DX003 (ip), vehicle: Klucel (hydroxypropylcellulose) (HPC)); 6 of 6 under setting [4]; 6 of 6 under setting [5]. The survivor count under setting [6] is 6 of 6 and the survivor count under setting [7] is 6 of 6.

As for `CC(=O)C[P+](c1ccccc1)(c1ccccc1)c1ccccc1`, the survivor count is on record as 1 of 6 (dose: 200.0 mg/kg/injection, schedule: Q01DX001 (ip), vehicle: saline) and 0 of 6 (dose: 400.0 mg/kg/injection, schedule: Q01DX001 (ip), vehicle: saline).

On to `O=C1C(C(O)c2ccccc2)SC(c2ccccc2)N1c1ccccc1` (stereo not given), for which the survivor count under setting [5] is 5 of 6 and the survivor count under setting [6] is given as 6 of 6.

With `COc1cc(OC)c(N=Cc2ccc3c(c2)OCO3)cc1Cl`, under setting [7], the survivor count is recorded as 6 of 6.

`S=c1nc[nH]c2c1ncn2CN1CCOCC1`: the T/C is, setting by setting: under setting [2], 135 % of control; under setting [4], 135 % of control. For the same compound, the survivor count (dose: 200.0 mg/kg/injection, schedule: Q01DX009 (ip), vehicle: Klucel (hydroxypropylcellulose) (HPC)) is 3 of 6.

`Cc1c2ccccc2cc2cc[n+]3ccccc3c12`: the T/C is, setting by setting: (dose: 7.5 mg/kg/injection, schedule: Q01DX010 (ip), vehicle: carboxymethylcellulose (CMC)) 130 % of control [5 of 6 alive]; (dose: 15.0 mg/kg/injection, schedule: Q01DX010 (ip), vehicle: carboxymethylcellulose (CMC)) 135 % of control. Further, the survivor count (dose: 30.0 mg/kg/injection, schedule: Q01DX010 (ip), vehicle: carboxymethylcellulose (CMC)) is on record as 0 of 6 and the survivor count (dose: 60.0 mg/kg/injection, schedule: Q01DX010 (ip), vehicle: carboxymethylcellulose (CMC)) was 0 of 6.

Regarding `CCCC[N+](CCCC)(CCCC)CCCC.Cc1ccc([SH2+])c([SH2+])c1.Cc1ccc([SH2+])c([SH2+])c1.[Fe+3]`, the T/C is, setting by setting: under setting [5], 127, 130, 131 % of control; under setting [7], 135 % of control [5 of 6 alive]. The survivor count reads like this: (dose: 300.0 mg/kg/injection, schedule: Q04DX003 (ip), vehicle: Klucel (hydroxypropylcellulose) (HPC)) 5 of 6; under setting [7], 4 of 6.

Turning to `CC1CN1CC(O)C(O)CN1CC1C` (stereo not given), the T/C reads like this: (dose: 2.0 mg/kg/injection, schedule: Q04DX003 (ip), vehicle: saline) 140 % of control; (dose: 3.0 mg/kg/injection, schedule: Q01DX009 (ip), vehicle: saline) 133 % of control; (dose: 3.0 mg/kg/injection, schedule: Q04DX003 (ip), vehicle: saline) 140 % of control; under setting [8], 133 % of control; (dose: 7.5 mg/kg/injection, schedule: Q04DX003 (ip), vehicle: saline) 131 % of control. Also, the survivor count is, setting by setting: under setting [8], 6 of 6; (dose: 12.5 mg/kg/injection, schedule: Q01DX009 (ip), vehicle: saline) 6 of 6; (dose: 12.5 mg/kg/injection, schedule: Q04DX003 (ip), vehicle: saline) 6 of 6; (dose: 15.0 mg/kg/injection, schedule: Q04DX003 (ip), vehicle: saline) 5 of 6; (dose: 25.0 mg/kg/injection, schedule: Q01DX009 (ip), vehicle: saline) 1 of 6; (dose: 25.0 mg/kg/injection, schedule: Q04DX003 (ip), vehicle: saline) 5 of 6. Further, the survivor count runs as follows: under setting [3], 1 of 6; (dose: 100.0 mg/kg/injection, schedule: Q04DX003 (ip), vehicle: saline) 0 of 6; (dose: 200.0 mg/kg/injection, schedule: Q04DX003 (ip), vehicle: saline) 0 of 6; (dose: 400.0 mg/kg/injection, schedule: Q04DX003 (ip), vehicle: saline) 0 of 6.

As for `COc1cccc2c1C(=O)c1c(O)c3c(c(O)c1C2=O)C[C@@](O)(C(C)=O)C[C@@H]3OC1CC(NC(C)=O)C(O)C(C)O1` (stereo not given in full), the T/C by setting is: (dose: 2.5 mg/kg/injection, schedule: Q04DX003 (ip), vehicle: saline) 131 % of control; (dose: 5.0 mg/kg/injection, schedule: Q04DX003 (ip), vehicle: saline) 140 % of control; (dose: 5.56 mg/kg/injection, schedule: Q01DX009 (ip), vehicle: saline) 133 % of control; (dose: 8.3 mg/kg/injection, schedule: Q04DX003 (ip), vehicle: saline) 127 % of control; (dose: 8.33 mg/kg/injection, schedule: Q01DX009 (ip), vehicle: saline) 137 % of control; (dose: 12.0 mg/kg/injection, schedule: Q04DX003 (ip), vehicle: saline) 145 % of control. Moreover, the T/C is, setting by setting: (dose: 18.7 mg/kg/injection, schedule: Q01DX009 (ip), vehicle: saline) 125 % of control; (dose: 100.0 mg/kg/injection, schedule: Q04DX003 (ip), vehicle: saline sonified) 125 % of control; (dose: 200.0 mg/kg/injection, schedule: Q04DX003 (ip), vehicle: saline sonified) 130 % of control; (dose: 400.0 mg/kg/injection, schedule: Q04DX003 (ip), vehicle: saline sonified) 140 % of control. The survivor count (dose: 200.0 mg/kg/injection, schedule: Q01DX009 (ip), vehicle: water) is given as 7 of 8.
